The source of these data is publication PMC12288466, “EzrA promotes Z-ring formation through interaction of its QNR motif with FtsA” (Journal of Bacteriology, 2025).

Assay [1] addresses T1, FtsA of E. faecalis, bacterial two-hybrid fusion (E. faecalis) (UniProt O07111).
T1 sequence: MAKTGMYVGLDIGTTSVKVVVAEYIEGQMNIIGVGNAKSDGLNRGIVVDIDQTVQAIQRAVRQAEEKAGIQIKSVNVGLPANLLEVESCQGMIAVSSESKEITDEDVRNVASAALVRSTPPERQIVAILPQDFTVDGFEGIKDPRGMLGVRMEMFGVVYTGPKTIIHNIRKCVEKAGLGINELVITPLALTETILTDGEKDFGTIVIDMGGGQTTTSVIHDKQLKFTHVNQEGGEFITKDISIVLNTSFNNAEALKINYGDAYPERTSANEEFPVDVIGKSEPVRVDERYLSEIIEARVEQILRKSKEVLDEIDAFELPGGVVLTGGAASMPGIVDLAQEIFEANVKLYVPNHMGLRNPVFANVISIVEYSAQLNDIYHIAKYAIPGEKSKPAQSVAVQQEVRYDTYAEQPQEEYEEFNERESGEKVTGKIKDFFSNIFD
The assay can be described thus: two-hybrid; bacterial two-hybrid (pUT18/pKT25) in E. coli BTH101, spots on LB agar with X-Gal and IPTG, 30°C, 24 h.

Assay [2] deals with T1, FtsA of E. faecalis, bacterial two-hybrid fusion (E. faecalis). In words: two-hybrid; bacterial two-hybrid (pUT18/pKT25) in E. coli BTH101, β-galactosidase activity of cultures grown at 30°C for 16 h.
In assay [3] the target is T2, FtsA of B. subtilis, bacterial two-hybrid fusion (B. subtilis) (UniProt P28264).
T2 sequence: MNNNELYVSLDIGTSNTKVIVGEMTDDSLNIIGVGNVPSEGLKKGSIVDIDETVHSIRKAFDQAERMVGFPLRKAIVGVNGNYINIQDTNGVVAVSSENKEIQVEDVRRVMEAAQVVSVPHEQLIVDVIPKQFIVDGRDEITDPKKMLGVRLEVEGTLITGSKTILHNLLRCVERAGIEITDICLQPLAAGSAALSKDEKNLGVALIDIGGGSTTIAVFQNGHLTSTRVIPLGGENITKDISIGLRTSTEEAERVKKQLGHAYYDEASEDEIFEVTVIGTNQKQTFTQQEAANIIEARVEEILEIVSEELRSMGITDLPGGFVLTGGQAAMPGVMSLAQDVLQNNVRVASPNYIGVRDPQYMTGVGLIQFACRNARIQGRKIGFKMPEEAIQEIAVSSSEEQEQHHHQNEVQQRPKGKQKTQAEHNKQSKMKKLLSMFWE
In words: two-hybrid; bacterial two-hybrid (pUT18/pKT25) in E. coli BTH101, spots on LB agar with X-Gal and IPTG, 30°C, 24 h.

In assay [4] the target is T2, FtsA of B. subtilis, bacterial two-hybrid fusion (B. subtilis). The assay can be described thus: two-hybrid; bacterial two-hybrid (pUT18/pKT25) in E. coli BTH101, β-galactosidase activity of cultures grown at 30°C for 16 h.

No constants are given. Whether binding was seen depends on the method and setting. Some binding calls cover weakened binding; strength is not graded here. Where a sequence is shown, tags or fusion partners need not be part of it.

B1: EzrA of Enterococcus faecalis, bacterial two-hybrid fusion (protein, UniProt Q838R5 1-578)
chain: MKNNWIIILVLVIVIIAAVLYLIGYFMRKKNQEQLDELEVRKEALFDLPVFEEIDDIKKMHLVGQSQNSFREWNQRWVELSTRSFAELESQIYEVENQNEIFRFMKAKKAVVEANETMTEMEAEVEVIRNGLKELRESEERNSLEVQKALDVYEELSKSLKDDKASFGPAYSEIQKQLRNVEIEFTQFVTLNTSGDPIEAREVLEDAERHTYELEDLMKRIPPMYEELNETFPDQLKEIEEGYNQLLADDYVFPEQNFAEEIQHAKKRVENSMADLEKTEIAAVEVANRDTATAIDALYEVMEREIEAKKYVVTNQKIIDDYISHSLKNNRQLMIELDHVSQSYTLNNNELGRSRGFQTEIEEIIRRQKDLEPRMKEHTVPYSEIQAFYKECYKILDDIENQQLEIDASLKELRKGEKVAQEKVDEYEFRLRSIKRYVEKQRLPGLSADYLEFFYVATDRIEDLSRALNKMRINMDEINRLCDLCEDDLELLDKKTKDLVNAAALTEQMMQYANRYRHTHENIRAALDKSMYLFSTEFRYQDALDEIGTALEAVEPGAFKRIEDFYFKNINNPNLTAI
As for B1, the binding entry in assay [1] and in assay [2] was “binds” throughout.

B2: EzrA of B. subtilis, bacterial two-hybrid fusion (protein, UniProt O34894 1-562)
chain: MEFVIGLLIVLLALFAAGYFFRKKIYAEIDRLESWKIEILNRSIVEEMSKIKHLKMTGQTEEFFEKWREEWDEIVTAHMPKVEELLYDAEENADKYRFKKANQVLVHIDDLLTAAESSIEKILREISDLVTSEEKSREEIEQVRERYSKSRKNLLAYSHLYGELYDSLEKDLDEIWSGIKQFEEETEGGNYITARKVLLEQDRNLERLQSYIDDVPKLLADCKQTVPGQIAKLKDGYGEMKEKGYKLEHIQLDKELENLSNQLKRAEHVLMTELDIDEASAILQLIDENIQSVYQQLEGEVEAGQSVLSKMPELIIAYDKLKEEKEHTKAETELVKESYRLTAGELGKQQAFEKRLDEIGKLLSSVKDKLDAEHVAYSLLVEEVASIEKQIEEVKKEHAEYRENLQALRKEELQARETLSNLKKTISETARLLKTSNIPGIPSHIQEMLENAHHHIQETVNQLNELPLNMEEAGAHLKQAEDIVNRASRESEELVEQVILIEKIIQFGNRFRSQNHILSEQLKEAERRFYAFDYDDSYEIAAAAVEKAAPGAVEKIKADISA
Take B2: the binding result in assay [3] and in assay [4] was “binds” each time.
